Experimental data from the supplement of paper PMC12823440, “Inhibitors supercharge kinase turnover through native proteolytic circuits” (Nature, 2025).
Some of the results follow. The calls rarely recur for the same compound in another form.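 Kinases, fused to nanoluciferase, were expressed in K562 cells; luminescence was measured every 4 h from 2 to 18 h as percent of control (DMSO = 100%, positive control = 0%). A time point is decreased if signal falls significantly (2 sigma). Hits were called by the authors by a rule that is not shown; the count of time points alone does not decide it.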

By UniProt entry, the sequences of proteins in these tests, tags left out. Where a name states a change or a piece, a line headed by the entry shows the natural chain unless it says otherwise.
UniProt Q16288, whole entry, looked up: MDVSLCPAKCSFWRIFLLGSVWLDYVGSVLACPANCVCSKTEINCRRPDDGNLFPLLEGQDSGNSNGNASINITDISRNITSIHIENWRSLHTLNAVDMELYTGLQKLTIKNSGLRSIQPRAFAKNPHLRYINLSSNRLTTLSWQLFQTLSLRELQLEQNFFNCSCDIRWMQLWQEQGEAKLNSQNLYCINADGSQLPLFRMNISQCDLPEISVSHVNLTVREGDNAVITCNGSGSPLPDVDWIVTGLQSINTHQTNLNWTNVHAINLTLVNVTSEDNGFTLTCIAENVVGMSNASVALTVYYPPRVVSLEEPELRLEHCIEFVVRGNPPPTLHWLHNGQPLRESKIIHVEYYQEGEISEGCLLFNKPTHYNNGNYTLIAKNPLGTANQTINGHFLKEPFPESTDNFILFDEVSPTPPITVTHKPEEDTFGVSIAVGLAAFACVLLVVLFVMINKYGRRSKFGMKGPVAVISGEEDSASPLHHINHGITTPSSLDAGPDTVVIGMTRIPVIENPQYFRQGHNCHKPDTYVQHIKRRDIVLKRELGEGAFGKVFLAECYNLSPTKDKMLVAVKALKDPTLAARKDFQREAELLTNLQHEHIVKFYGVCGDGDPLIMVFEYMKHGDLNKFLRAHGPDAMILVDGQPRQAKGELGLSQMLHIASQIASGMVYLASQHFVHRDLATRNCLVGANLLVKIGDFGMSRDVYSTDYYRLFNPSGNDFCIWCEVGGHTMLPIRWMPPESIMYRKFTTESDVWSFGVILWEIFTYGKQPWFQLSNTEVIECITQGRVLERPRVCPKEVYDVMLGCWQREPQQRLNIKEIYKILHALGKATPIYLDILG
UniProt O96013: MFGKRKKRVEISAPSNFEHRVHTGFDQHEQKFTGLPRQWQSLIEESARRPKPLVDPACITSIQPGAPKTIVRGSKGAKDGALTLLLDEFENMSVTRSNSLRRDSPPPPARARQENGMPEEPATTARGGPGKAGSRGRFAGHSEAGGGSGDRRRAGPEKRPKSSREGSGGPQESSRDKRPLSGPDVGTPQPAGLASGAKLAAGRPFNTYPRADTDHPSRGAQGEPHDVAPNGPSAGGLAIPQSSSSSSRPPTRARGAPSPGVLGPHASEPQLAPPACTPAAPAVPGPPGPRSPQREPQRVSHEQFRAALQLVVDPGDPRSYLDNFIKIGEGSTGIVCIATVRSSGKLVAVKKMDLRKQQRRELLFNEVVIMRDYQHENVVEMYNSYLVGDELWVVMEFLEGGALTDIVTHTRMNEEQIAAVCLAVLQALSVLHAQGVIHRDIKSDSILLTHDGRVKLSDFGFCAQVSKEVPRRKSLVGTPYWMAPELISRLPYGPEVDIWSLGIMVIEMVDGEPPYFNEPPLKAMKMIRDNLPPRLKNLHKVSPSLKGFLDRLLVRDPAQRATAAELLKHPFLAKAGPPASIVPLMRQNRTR
UniProt Q15118, whole entry, looked up: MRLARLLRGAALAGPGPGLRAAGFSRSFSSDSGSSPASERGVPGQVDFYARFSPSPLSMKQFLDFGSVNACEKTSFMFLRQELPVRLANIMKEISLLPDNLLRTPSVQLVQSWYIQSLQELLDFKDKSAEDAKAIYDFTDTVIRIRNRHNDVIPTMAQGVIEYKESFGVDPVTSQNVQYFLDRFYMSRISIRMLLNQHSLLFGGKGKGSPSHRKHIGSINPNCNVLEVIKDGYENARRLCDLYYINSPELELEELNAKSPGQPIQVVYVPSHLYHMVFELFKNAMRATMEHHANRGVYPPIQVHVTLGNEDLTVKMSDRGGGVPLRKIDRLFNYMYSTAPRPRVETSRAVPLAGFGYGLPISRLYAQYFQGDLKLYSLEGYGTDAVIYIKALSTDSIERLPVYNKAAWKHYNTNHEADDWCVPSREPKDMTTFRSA
UniProt O15530: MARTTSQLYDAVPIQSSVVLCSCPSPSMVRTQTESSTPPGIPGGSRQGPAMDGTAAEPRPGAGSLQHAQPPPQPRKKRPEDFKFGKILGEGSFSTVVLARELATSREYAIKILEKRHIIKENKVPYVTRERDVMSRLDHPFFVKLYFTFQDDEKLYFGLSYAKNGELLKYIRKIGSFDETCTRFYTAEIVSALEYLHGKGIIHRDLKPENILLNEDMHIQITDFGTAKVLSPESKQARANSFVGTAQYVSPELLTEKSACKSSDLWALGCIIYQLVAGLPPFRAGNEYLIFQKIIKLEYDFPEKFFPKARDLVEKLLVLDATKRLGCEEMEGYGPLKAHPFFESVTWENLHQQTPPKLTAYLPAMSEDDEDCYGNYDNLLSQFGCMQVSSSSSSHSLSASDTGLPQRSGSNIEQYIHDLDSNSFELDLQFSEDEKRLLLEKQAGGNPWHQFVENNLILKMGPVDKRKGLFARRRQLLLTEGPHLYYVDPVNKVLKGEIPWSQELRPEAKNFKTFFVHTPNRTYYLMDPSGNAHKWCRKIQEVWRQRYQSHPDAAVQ
UniProt P53350, whole entry: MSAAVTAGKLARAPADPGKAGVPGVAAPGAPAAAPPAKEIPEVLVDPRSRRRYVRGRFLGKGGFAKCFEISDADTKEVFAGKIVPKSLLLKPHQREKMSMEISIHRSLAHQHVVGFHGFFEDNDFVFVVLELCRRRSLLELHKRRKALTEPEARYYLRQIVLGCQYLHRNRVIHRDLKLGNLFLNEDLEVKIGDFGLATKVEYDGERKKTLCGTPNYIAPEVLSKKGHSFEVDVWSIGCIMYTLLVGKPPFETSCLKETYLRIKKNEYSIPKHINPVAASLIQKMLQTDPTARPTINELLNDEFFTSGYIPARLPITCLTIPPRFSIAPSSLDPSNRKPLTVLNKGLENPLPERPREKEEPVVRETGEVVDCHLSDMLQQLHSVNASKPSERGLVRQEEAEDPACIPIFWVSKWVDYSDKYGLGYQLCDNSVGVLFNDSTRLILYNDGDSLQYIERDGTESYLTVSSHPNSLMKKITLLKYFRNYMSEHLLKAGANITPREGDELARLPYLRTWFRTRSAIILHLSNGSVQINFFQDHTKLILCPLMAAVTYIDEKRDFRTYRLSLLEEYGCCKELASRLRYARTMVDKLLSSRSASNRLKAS
UniProt Q13131: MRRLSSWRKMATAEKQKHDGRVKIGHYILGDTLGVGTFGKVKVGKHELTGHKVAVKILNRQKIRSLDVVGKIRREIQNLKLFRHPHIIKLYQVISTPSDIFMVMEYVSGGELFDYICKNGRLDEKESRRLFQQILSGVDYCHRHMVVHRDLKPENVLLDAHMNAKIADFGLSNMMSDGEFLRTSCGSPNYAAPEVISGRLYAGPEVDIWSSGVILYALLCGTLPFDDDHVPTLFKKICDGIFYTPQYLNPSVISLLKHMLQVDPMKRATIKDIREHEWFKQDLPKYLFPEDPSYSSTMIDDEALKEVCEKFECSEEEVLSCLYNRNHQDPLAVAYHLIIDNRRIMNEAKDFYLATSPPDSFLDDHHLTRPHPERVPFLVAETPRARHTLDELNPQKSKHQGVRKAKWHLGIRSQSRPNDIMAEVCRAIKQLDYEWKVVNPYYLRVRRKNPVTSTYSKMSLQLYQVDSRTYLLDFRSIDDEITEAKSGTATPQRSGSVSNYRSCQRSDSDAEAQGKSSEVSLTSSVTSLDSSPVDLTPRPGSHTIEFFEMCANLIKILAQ
UniProt Q05397, whole entry, looked up: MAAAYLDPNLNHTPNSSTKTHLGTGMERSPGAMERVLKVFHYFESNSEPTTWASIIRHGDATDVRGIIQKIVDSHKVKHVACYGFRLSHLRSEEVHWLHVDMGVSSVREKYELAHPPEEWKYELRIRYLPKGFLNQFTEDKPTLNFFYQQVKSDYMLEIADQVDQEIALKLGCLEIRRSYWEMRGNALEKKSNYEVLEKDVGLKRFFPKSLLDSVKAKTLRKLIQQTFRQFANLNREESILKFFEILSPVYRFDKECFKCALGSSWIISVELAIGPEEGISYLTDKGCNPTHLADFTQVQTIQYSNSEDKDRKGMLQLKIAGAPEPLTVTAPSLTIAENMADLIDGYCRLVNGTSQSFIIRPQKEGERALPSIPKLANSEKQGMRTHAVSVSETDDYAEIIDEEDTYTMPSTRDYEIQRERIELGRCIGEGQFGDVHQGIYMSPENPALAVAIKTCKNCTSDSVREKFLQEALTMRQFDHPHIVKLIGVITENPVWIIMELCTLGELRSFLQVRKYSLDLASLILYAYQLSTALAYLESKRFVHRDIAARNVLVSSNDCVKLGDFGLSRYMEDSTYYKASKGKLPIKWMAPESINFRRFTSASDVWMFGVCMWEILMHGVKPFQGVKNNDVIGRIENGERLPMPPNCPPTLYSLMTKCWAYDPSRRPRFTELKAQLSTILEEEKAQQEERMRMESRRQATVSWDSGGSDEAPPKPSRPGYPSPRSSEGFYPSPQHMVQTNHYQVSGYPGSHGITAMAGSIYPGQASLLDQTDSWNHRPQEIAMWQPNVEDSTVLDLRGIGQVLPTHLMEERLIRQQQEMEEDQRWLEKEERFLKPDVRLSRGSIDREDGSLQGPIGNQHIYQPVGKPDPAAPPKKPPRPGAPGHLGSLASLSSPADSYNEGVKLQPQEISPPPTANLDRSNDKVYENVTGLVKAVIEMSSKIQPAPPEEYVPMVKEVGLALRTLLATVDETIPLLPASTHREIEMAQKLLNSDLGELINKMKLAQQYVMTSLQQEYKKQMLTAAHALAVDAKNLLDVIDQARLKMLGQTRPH
UniProt Q9BRS2: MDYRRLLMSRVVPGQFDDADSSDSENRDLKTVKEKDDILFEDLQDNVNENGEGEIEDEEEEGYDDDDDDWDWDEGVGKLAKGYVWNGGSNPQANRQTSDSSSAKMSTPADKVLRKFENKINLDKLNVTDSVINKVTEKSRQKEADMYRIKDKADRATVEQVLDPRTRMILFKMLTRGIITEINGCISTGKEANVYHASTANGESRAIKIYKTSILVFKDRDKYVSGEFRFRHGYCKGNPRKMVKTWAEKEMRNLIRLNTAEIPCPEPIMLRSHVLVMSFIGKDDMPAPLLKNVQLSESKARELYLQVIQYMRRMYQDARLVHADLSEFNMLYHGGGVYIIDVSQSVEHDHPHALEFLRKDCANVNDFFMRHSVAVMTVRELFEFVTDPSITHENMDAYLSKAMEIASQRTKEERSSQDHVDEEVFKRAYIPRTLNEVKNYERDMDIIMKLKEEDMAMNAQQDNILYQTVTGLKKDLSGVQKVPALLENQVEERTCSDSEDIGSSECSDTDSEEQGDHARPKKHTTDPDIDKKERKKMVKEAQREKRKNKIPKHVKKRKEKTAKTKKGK
UniProt Q13546: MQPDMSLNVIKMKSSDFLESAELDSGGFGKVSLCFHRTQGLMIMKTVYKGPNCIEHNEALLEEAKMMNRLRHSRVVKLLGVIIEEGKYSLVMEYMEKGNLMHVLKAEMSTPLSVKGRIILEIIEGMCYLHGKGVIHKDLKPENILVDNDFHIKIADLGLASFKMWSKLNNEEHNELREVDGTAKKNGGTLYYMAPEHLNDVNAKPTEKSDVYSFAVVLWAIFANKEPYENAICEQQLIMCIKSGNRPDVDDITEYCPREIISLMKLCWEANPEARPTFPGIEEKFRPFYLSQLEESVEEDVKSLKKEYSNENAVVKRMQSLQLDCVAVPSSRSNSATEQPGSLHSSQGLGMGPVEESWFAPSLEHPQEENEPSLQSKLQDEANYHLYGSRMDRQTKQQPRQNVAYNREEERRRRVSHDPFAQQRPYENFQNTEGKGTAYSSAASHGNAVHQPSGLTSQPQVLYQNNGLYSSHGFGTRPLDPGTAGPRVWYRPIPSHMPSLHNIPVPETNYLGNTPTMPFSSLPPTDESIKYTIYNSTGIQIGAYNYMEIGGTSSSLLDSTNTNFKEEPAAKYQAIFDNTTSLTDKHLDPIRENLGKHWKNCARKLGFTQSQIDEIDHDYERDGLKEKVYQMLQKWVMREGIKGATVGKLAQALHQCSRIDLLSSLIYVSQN

Experiments:
Assay in all cases: number of time points (of 5) at which kinase-Nluc abundance scored as decreased, DMSO-normalised (count); higher = more persistent destabilization
Conditions in all cases: K562; 2-18 h
NTRK3 = NTRK3 (UniProt Q16288)
PAK4 = PAK4 (UniProt O96013)
PBK = PBK (UniProt Q96KB5)
PDGFRB = PDGFRB (UniProt P09619)
PDK1 = PDK1 (UniProt Q15118)
PDPK1 = PDPK1 (UniProt O15530)
PIK4CA = PIK4CA (UniProt P42356)
PIK4CB = PIK4CB (UniProt Q9UBF8)
PLK1 = PLK1 (UniProt P53350)
PRKAA1 = PRKAA1 (UniProt Q13131)
PRKCA = PRKCA (UniProt P17252)
PTK2 = PTK2 (UniProt Q05397)
PTK2B = PTK2B (UniProt Q14289)
RAF1 = RAF1 (UniProt P04049)
[1] = biological target: RAF1_S257L (clone: RAF1_mut) (UniProt P04049)
RET = RET (UniProt P07949)
[2] = biological target: RET_M918T (clone: RET_mut) (UniProt P07949)
RIOK1 = RIOK1 (UniProt Q9BRS2)
RIPK1 = RIPK1 (UniProt Q13546)
RIPK2 = RIPK2 (UniProt O43353)

Measured: number of time points

O=C(c1ccc(NS(=O)(=O)c2cccc3cccnc23)cc1)N1CCN(CC2CC2)CC1 [Mitapivat] (10 µM)
0: all assays above

Cc1ncc(F)c(Nc2n[nH]c3c2CN(C(=O)N2C[C@@H](C)N(CC4CCOCC4)C[C@@H]2C)C3(C)C)n1 (10 µM)
0: all assays above

CC(C)(C)S(=O)(=O)c1cc2c(Nc3ccc4scnc4c3)ccnc2cc1OCCOCCOCCOCCOCC(=O)Nc1cccc2c1CN(C1CCC(=O)NC1=O)C2=O (stereo not given) [PROTAC RIPK degrader-6] (10 µM)
4: RIPK2
0: all other assays above

C[C@H](CC[C@@H](O)C(C)(C)O)[C@H]1CC[C@@]2(C)[C@@H]3CC=C4[C@@H](CC[C@H](O)C4(C)C)[C@]3(C)[C@H](O)C[C@]12C [Mogrol] (10 µM)
0: all assays above

Cc1occ2c1C(=O)c1c(O)ccc(O)c1C2 (2.5 µM)
0: all assays above

COc1ccc(-c2cnc3c(-c4cccc5ncccc45)cnn3c2)cc1 (10 µM)
0: all assays above

CNS(=O)(=O)C[C@H]1CC[C@H](N(C)c2[nH]cnc3nccc2-3)CC1 [Oclacitinib (maleate)] (10 µM)
0: all assays above

C[C@@]12CCc3occc3[C@H]1CC[C@@]13C[C@@H](CC[C@H]12)[C@@](O)(CO)C3 [Cafestol] (10 µM)
0: all assays above

Quoted at random: 2 compounds from above, in no set order.
Cc1occ2c1C(=O)c1c(O)ccc(O)c1C2 (2.5 µM)
0: all assays above

C[C@H](CC[C@@H](O)C(C)(C)O)[C@H]1CC[C@@]2(C)[C@@H]3CC=C4[C@@H](CC[C@H](O)C4(C)C)[C@]3(C)[C@H](O)C[C@]12C [Mogrol] (10 µM)
0: all assays above

Additional compounds follow.

Cc1nc(Nc2ncc(C(=O)Nc3c(C)cccc3Cl)s2)cc(N2CCN(C(=O)CCCCCCC(=O)N[C@H](C(=O)N3C[C@H](O)C[C@H]3C(=O)NCc3ccc(-c4scnc4C)cc3)C(C)(C)C)CC2)n1 (2.5 µM)
2: PIK4CB | PLK1 | PRKAA1 | PTK2 | RET | RIOK1
1: PAK4 | PRKCA | PTK2B
4: RIPK2
0: PBK | PDK1 | [2]
3: all other assays above

COc1ccc(F)cc1C(=O)NCc1ccc(-c2nn([C@@H](C)C(F)(F)F)c(N)c2C(N)=O)cc1 [Pirtobrutinib] (10 µM)
0: all assays above

C=CC(=O)Nc1cccc(Oc2nc(Nc3ccc(N4CCN(C)CC4)cc3)ncc2Cl)c1 (2.5 µM)
0: all assays above

COc1cccc2cc(-c3nc([C@H]4CC[C@H](C(=O)O)CC4)n4ncnc(N)c34)[nH]c12 (2.5 µM)
3: PLK1 | RIPK1 | RIPK2
4: NTRK3 | PDGFRB | PDPK1 | PIK4CA | [2]
1: PTK2B
0: PAK4 | PBK | PDK1 | PRKCA | RET
2: all other assays above
